Measured values as given in doi:10.1101/2020.11.02.365890.
Where two headings read alike, the source gives them in different places. No constants are given. Whether binding was seen depends on the method and setting. For part of these data: In cells and extracts the contact can be indirect. Some entries that bind do so weakly or less than the wild type. One block for each molecule: values may come before it.

Amino acid sequences for entries named in this document (tags omitted). Residues count along the entry.
UniProt Q04206: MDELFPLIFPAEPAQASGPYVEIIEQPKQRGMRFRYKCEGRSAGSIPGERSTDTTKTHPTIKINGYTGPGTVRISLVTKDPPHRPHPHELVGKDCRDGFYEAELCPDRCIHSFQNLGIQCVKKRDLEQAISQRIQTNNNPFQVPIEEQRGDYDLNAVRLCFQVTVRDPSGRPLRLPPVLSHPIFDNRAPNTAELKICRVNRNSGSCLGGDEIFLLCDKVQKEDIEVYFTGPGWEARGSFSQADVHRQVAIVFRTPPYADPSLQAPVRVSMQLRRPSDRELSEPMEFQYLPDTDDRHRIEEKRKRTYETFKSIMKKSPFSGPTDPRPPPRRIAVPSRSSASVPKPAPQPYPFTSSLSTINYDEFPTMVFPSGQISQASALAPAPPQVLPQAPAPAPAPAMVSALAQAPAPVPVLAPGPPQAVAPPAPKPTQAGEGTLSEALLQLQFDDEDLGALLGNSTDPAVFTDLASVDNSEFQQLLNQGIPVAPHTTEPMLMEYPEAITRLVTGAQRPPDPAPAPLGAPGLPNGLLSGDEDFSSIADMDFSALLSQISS
UniProt Q9Z1E3: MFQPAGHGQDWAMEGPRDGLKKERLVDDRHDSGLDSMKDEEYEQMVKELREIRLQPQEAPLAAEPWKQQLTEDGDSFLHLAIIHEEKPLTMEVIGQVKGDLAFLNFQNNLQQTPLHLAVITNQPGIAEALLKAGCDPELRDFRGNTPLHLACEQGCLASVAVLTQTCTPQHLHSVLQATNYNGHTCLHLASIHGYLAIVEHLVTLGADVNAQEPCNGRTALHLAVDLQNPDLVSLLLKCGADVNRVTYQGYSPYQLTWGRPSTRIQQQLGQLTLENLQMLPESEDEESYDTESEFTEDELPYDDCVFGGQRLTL
UniProt P19838, residues 1-433: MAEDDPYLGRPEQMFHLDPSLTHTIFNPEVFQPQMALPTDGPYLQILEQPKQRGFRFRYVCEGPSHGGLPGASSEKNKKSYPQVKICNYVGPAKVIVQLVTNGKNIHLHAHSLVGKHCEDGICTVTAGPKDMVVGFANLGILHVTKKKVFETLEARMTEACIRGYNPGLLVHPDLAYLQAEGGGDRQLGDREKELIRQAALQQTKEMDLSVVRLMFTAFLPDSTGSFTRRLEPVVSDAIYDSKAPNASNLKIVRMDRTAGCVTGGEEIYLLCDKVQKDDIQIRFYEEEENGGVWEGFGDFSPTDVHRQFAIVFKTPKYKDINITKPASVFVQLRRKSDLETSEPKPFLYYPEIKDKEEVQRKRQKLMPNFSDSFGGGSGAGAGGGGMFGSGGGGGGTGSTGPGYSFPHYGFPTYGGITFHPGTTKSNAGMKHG

Tests used:
[1] = target: RelA (mouse (endogenous in MEFs and IECs)) (UniProt Q04207); assay: co-IP
[2] = target: RelA (human) (human (endogenous in colon biopsies)) (UniProt Q04206); assay: native gel or EMSA
[3] = target: RelA (human) (human (endogenous in colon biopsies)) (UniProt Q04206); assay: native gel or EMSA; remark: listed apart in the source
[4] = target: T1, RelA (mouse (endogenous in MEFs and IECs)), Q04207; assay: co-IP; settings: remark: other sources report otherwise
T1 chain: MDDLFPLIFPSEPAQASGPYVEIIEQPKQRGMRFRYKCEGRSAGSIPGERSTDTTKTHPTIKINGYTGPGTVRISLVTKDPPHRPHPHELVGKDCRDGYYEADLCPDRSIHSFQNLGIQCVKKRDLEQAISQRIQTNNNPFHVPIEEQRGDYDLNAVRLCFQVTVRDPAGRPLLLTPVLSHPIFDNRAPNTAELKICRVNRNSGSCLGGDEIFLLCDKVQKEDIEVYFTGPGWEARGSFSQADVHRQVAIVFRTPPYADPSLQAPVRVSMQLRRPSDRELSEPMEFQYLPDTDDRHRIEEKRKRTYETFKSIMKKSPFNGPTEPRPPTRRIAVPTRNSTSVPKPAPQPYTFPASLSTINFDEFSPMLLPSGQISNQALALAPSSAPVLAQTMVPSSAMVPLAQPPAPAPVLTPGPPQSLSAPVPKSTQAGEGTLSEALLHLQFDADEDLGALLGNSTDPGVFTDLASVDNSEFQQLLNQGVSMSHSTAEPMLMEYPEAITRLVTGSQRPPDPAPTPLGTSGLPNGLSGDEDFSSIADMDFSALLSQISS

[5] = target: T1, RelA (mouse (endogenous in MEFs and …)); assay: native gel or EMSA; settings: remark: other sources report otherwise
[6] = target: RelA (mouse (endogenous in MEFs and IECs)) (UniProt Q04207); assay: native gel or EMSA

binding [1]: binds
Molecule: IκBα (from UniProt Q9Z1E3 1-314)

binding [2]: binds
Molecule: p50 (human) (from UniProt P19838)

binding [1]: binds
Molecule: p105 (from UniProt P25799-1)

binding [1]: binds
B1: p100 (protein, UniProt Q9WTK5)
chain: MDNCYDPGLDGIPEYDDFEFSPSIVEPKDPAPETADGPYLVIVEQPKQRGFRFRYGCEGPSHGGLPGASSEKGRKTYPTVKICNYEGPAKIEVDLVTHSDPPRAHAHSLVGKQCSELGVCAVSVGPKDMTAQFNNLGVLHVTKKNMMEIMIQKLQRQRLRSKPQGLTEAERRELEQEAKELKKVMDLSIVRLRFSAFLRASDGSFSLPLKPVISQPIHDSKSPGASNLKISRMDKTAGSVRGGDEVYLLCDKVQKDDIEVRFYEDDENGWQAFGDFSPTDVHKQYAIVFRTPPYHKMKIERPVTVFLQLKRKRGGDVSDSKQFTYYPLVEDKEEVQRKRRKALPTFSQPFGGGSHMGGGSGGSAGGYGGAGGGGSLGFFSSSLAYNPYQSGAAPMGCYPGGGGGAQMAGSRRDTDAGEGAEEPRTPPEAPQGEPQALDTLQRAREYNARLFGLAQRSARALLDYGVTADARALLAGQRHLLMAQDENGDTPLHLAIIHGQTGVIEQIAHVIYHAQYLGVINLTNHLHQTPLHLAVITGQTRVVSFLLQVGADPTLLDRHGDSALHLALRAGAAAPELLQALLRSGAHAVPQILHMPDFEGLYPVHLAVHARSPECLDLLVDCGAEVEAPERQGGRTALHLATEMEELGLVTHLVTKLHANVNARTFAGNTPLHLAAGLGSPTLTRLLLKAGADIHAENEEPLCPLPSPSTSGSDSDSEGPERDTQRNFRGHTPLDLTCSTKVKTLLLNAAQNTTEPPLAPPSPAGPGLSLGDAALQNLEQLLDGPEAQGSWAELAERLGLRSLVDTYRKTPSPSGSLLRSYKLAGGDLVGLLEALSDMGLHEGVRLLKGPETRDKLPSTEVKEDSAYGSQSVEQEAEKLCPPPEPPGGLCHGHPQPQVH

binding [3]: binds
B2: p52 (human) (protein, UniProt Q00653)
chain: MESCYNPGLDGIIEYDDFKLNSSIVEPKEPAPETADGPYLVIVEQPKQRGFRFRYGCEGPSHGGLPGASSEKGRKTYPTVKICNYEGPAKIEVDLVTHSDPPRAHAHSLVGKQCSELGICAVSVGPKDMTAQFNNLGVLHVTKKNMMGTMIQKLQRQRLRSRPQGLTEAEQRELEQEAKELKKVMDLSIVRLRFSAFLRASDGSFSLPLKPVISQPIHDSKSPGASNLKISRMDKTAGSVRGGDEVYLLCDKVQKDDIEVRFYEDDENGWQAFGDFSPTDVHKQYAIVFRTPPYHKMKIERPVTVFLQLKRKRGGDVSDSKQFTYYPLVEDKEEVQRKRRKALPTFSQPFGGGSHMGGGSGGAAGGYGGAGGGGSLGFFPSSLAYSPYQSGAGPMGCYPGGGGGAQMAATVPSRDSGEEAAEPSAPSRTPQCEPQAPEMLQRAREYNARLFGLA

binding [4]: binds
binding [5]: binds
B3: p50, P25799 (protein)
chain: MADDDPYGTGQMFHLNTALTHSIFNAELYSPEIPLSTDGPYLQILEQPKQRGFRFRYVCEGPSHGGLPGASSEKNKKSYPQVKICNYVGPAKVIVQLVTNGKNIHLHAHSLVGKHCEDGVCTVTAGPKDMVVGFANLGILHVTKKKVFETLEARMTEACIRGYNPGLLVHSDLAYLQAEGGGDRQLTDREKEIIRQAAVQQTKEMDLSVVRLMFTAFLPDSTGSFTRRLEPVVSDAIYDSKAPNASNLKIVRMDRTAGCVTGGEEIYLLCDKVQKDDIQIRFYEEEENGGVWEGFGDFSPTDVHRQFAIVFKTPKYKDVNITKPASVFVQLRRKSDLETSEPKPFLYYPEIKDKEEVQRKRQKLMPNFSDSFGGGSGAGAGGGGMFGSGGGGGSTGSPGPGYGYSNYGFPPYGGITFHPGVTKSNAGVTHG

binding [1]: binds
binding [6]: binds
B4: p52 (protein, UniProt Q9WTK5)
chain: MDNCYDPGLDGIPEYDDFEFSPSIVEPKDPAPETADGPYLVIVEQPKQRGFRFRYGCEGPSHGGLPGASSEKGRKTYPTVKICNYEGPAKIEVDLVTHSDPPRAHAHSLVGKQCSELGVCAVSVGPKDMTAQFNNLGVLHVTKKNMMEIMIQKLQRQRLRSKPQGLTEAERRELEQEAKELKKVMDLSIVRLRFSAFLRASDGSFSLPLKPVISQPIHDSKSPGASNLKISRMDKTAGSVRGGDEVYLLCDKVQKDDIEVRFYEDDENGWQAFGDFSPTDVHKQYAIVFRTPPYHKMKIERPVTVFLQLKRKRGGDVSDSKQFTYYPLVEDKEEVQRKRRKALPTFSQPFGGGSHMGGGSGGSAGGYGGAGGGGSLGFFSSSLAYNPYQSGAAPMGCYPGGGGGAQMAGSRRDTDAGEGAEEPRTPPEAPQGEPQALDTLQRAREYNARLFGLA
